Results deposited as PubChem BioAssay AID1671195 (Yale University, 2021).

- Test: 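Knockdowns that increase or decrease uptake of fluorescent LDL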 (primary screen)
- Cell system: human Huh7 hepatoma cells
- Reagent: siRNA pool against human genes, 18 nM
- Timing: about 2 to 2.5 days of knockdown, then 8 h LDL uptake
- Conditions: DiI-labelled LDL at 30 µg/ml for 8 h, in lipoprotein-deficient serum medium
- Read-out: 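Fluorescent LDL signal imaged in cells, scaled to the plate median, robust z-score for each replicate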
- Direction: robust z-score: higher = more LDL uptake after knockdown
- Call rule: 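a gene counts as active if at least two replicate z-scores exceed ±2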
The deposit covers about 22,000 reagents; this is a part drawn at random. In the full data, about 1,510 (6.9%) are marked active. 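Active includes knockdowns raising or lowering LDL uptake; positive z-scores mean more uptake, negative mean less.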 A number with no mark means an inactive call.

Target gene	PubChem SID	robust z-score, replicate 1	robust z-score, replicate 2	robust z-score, replicate 3
CST11 (GeneID 140880)	SID442883542	2.79 (active)	2.46	2.9
C1QL1 (GeneID 10882)	SID442889056	0.666	0.983	0.209
LOC441450 (retired record) (GeneID 441450)	SID442902715	-1.16	-1.39	-0.861
SEPHS1P7 (GeneID 391428)	SID442902709	-0.347	-1.49	-1.56
NSMCE1-DT (GeneID 400512)	SID442883189	3.75 (active)	4.45	4
LOC440088 (retired record) (GeneID 440088)	SID442894037	-0.185	0.0207	0.106
CHRDL1 (GeneID 91851)	SID442892486	0.521	-0.079	0.0416
PSPH (GeneID 5723)	SID442896087	-0.194	-0.0215	-0.495
RAB11B (GeneID 9230)	SID442904452	-1.28	-1.97	-1.7
PLA2G15 (GeneID 23659)	SID442899634	-1.03	-0.668	-0.249
DNAJC18 (GeneID 202052)	SID442883360	2.69 (active)	3.53	3.22
FAM234B (GeneID 57613)	SID442889860	0.178	1.06	0.257
TRGV3 (GeneID 6976)	SID442902308	-1.4	-0.7	-1.05
MYCNOS (GeneID 10408)	SID442886304	-0.367	2	1.96
PXN (GeneID 5829)	SID442889246	0.691	0.737	0.338
PRAP1 (GeneID 118471)	SID442897379	-0.854	-0.246	-0.0384
THAP12 (GeneID 5612)	SID442897787	-0.473	-0.247	-0.553
DNAJC6 (GeneID 9829)	SID442894019	0.513	-0.437	-0.128
HEMK1 (GeneID 51409)	SID442900100	-0.725	-0.918	-0.493
MSH4 (GeneID 4438)	SID442893515	-0.269	0.1	0.292
TMEM237 (GeneID 65062)	SID442883173	4.24 (active)	4.37	4
PTPRA (GeneID 5786)	SID442890443	0.508	0.312	0.428
TMPRSS3 (GeneID 64699)	SID442902871	-1.07	-1.11	-1.32
LOC341306 (retired record) (GeneID 341306)	SID442885998	1.69	1.51	0.684
SLC52A2 (GeneID 79581)	SID442897338	-0.214	-0.372	-0.54
OS9 (GeneID 10956)	SID442897331	-0.14	-1.03	0.0474
KIAA0930 (GeneID 23313)	SID442895016	-0.349	0.683	-0.708
ZNF311 (GeneID 282890)	SID442883662	2.36 (active)	2.64	2.47
UNC13D (GeneID 201294)	SID442896774	0.115	-0.481	-0.569
EDN3 (GeneID 1908)	SID442887196	0.15	2.13	0.61

Sorted by “robust z-score, replicate 3” (low to high): some entries from above
Target gene	PubChem SID	robust z-score, replicate 1	robust z-score, replicate 2	robust z-score, replicate 3
THAP12 (GeneID 5612)	SID442897787	-0.473	-0.247	-0.553
HEMK1 (GeneID 51409)	SID442900100	-0.725	-0.918	-0.493
DNAJC6 (GeneID 9829)	SID442894019	0.513	-0.437	-0.128
MSH4 (GeneID 4438)	SID442893515	-0.269	0.1	0.292
TMEM237 (GeneID 65062)	SID442883173	4.24 (active)	4.37	4

Continued:
Target gene	PubChem SID	robust z-score, replicate 1	robust z-score, replicate 2	robust z-score, replicate 3
MICOS13 (GeneID 125988)	SID442896028	0.021	0.0855	-0.8
SHC2 (GeneID 25759)	SID442901301	-1.25	-0.769	-0.618
HISLA (GeneID 283587)	SID442900848	-0.853	-0.904	-0.691
MAN2C1 (GeneID 4123)	SID442901320	-1.08	-0.402	-1.17
PROZ (GeneID 8858)	SID442902537	-1.01	-1.38	-0.911
IFT20 (GeneID 90410)	SID442903132	-1.61	-0.878	-1.18
LOC441365 (retired record) (GeneID 441365)	SID442886241	1.12	1.02	1.51
FBLIM1P2 (GeneID 401679)	SID442897616	-0.232	-0.623	-0.36
C9orf72 (GeneID 203228)	SID442891361	0.113	0.227	0.548
LOC440201 (retired record) (GeneID 440201)	SID442894866	0.239	-0.451	-0.114
CCDC136 (GeneID 64753)	SID442890058	0.627	0.888	-0.106
LINC01140 (GeneID 339524)	SID442888953	0.534	0.903	0.469
TIMM8A (GeneID 1678)	SID442887485	0.775	0.706	1.23
GPR165P (GeneID 392486)	SID442891236	-0.746	0.883	0.804
TENM4 (GeneID 26011)	SID442885447	1.33	1.21	1.99
CDK17 (GeneID 5128)	SID442902695	-1.06	-0.986	-1.35
